Data source: PubChem BioAssay AID1224830 (NIAID, 2016)
Assay: 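Genes whose knock-down alters the TNF-alpha reporter response to LPS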 (primary screen). Cells: human THP-1 monocytic leukaemia cells, TNF dual-luciferase reporter clone, PMA-differentiated to macrophage-like cells. Reagents: siRNA pool against human genes, 50 nM. Timing: LPS for 4 h, given about 3 days after siRNA transfection. Treatment: bacterial LPS (TLR4 ligand), 10 ng/ml. Measurement: 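TNF firefly reporter luminescence divided by renilla, normalised to the plate median, then turned into a robust z-score for each replicate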. Reading the numbers: TNF reporter robust z-score: higher = stronger TNF reporter response to LPS. Hit rule: 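Each well counts as active if its z-score is over 2.8 or under -1.5; controls are left without a call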.
Shown is an unselected part of about 18,000 deposited reagents. About 2,900 of them (16%) count as active. 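Calls are made per well; low scores hint the gene aids the LPS response, high scores that it dampens it.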 Entries without a mark were called inactive. Repeated entries: four replicate wells of each siRNA pool. Reagent sequences are not shown.

gene knocked down | TNF reporter robust z-score
DPH2 (diphthamide biosynthesis 2) | 1.16
DPH2 (diphthamide biosynthesis 2) | 1.49
DPH2 (diphthamide biosynthesis 2) | 0.5
DPH2 (diphthamide biosynthesis 2) | 0.96
TROAP (trophinin associated protein) | 0.35
TROAP (trophinin associated protein) | 1.14
TROAP (trophinin associated protein) | 0.94
TROAP (trophinin associated protein) | 1.53
SAP30 (Sin3A associated protein 30) | -0.83
SAP30 (Sin3A associated protein 30) | -0.16
SAP30 (Sin3A associated protein 30) | -0.49
SAP30 (Sin3A associated protein 30) | -0.52
NR0B2 (nuclear receptor subfamily 0 group B member 2) | -1.72 (active)
NR0B2 (nuclear receptor subfamily 0 group B member 2) | -1.12
NR0B2 (nuclear receptor subfamily 0 group B member 2) | -1.04
NR0B2 (nuclear receptor subfamily 0 group B member 2) | -0.56
TSPO (translocator protein) | 0.03
TSPO (translocator protein) | -0.61
TSPO (translocator protein) | -0.35
TSPO (translocator protein) | -0.88
MAGEH1 (MAGE family member H1) | 0.64
MAGEH1 (MAGE family member H1) | 2.65
MAGEH1 (MAGE family member H1) | 2.43
MAGEH1 (MAGE family member H1) | 2.75
ZBTB39 (zinc finger and BTB domain containing 39) | 0.43
ZBTB39 (zinc finger and BTB domain containing 39) | 0.11
ZBTB39 (zinc finger and BTB domain containing 39) | 1.39
ZBTB39 (zinc finger and BTB domain containing 39) | -0.12
PLEKHO2 (pleckstrin homology domain containing O2) | -1.74 (active)
PLEKHO2 (pleckstrin homology domain containing O2) | -0.58
PLEKHO2 (pleckstrin homology domain containing O2) | -1.23
PLEKHO2 (pleckstrin homology domain containing O2) | -1.24
TRAM1L1 (translocation associated membrane protein 1 like 1) | -0.3
TRAM1L1 (translocation associated membrane protein 1 like 1) | -0.9
TRAM1L1 (translocation associated membrane protein 1 like 1) | 0.07
TRAM1L1 (translocation associated membrane protein 1 like 1) | 0.78

Next part; the last 8 above are carried over.
gene knocked down | TNF reporter robust z-score
PLEKHO2 (pleckstrin homology domain containing O2) | -1.74 (active)
PLEKHO2 (pleckstrin homology domain containing O2) | -0.58
PLEKHO2 (pleckstrin homology domain containing O2) | -1.23
PLEKHO2 (pleckstrin homology domain containing O2) | -1.24
TRAM1L1 (translocation associated membrane protein 1 like 1) | -0.3
TRAM1L1 (translocation associated membrane protein 1 like 1) | -0.9
TRAM1L1 (translocation associated membrane protein 1 like 1) | 0.07
TRAM1L1 (translocation associated membrane protein 1 like 1) | 0.78
TRIM51G (tripartite motif-containing 51G) | -1.42
TRIM51G (tripartite motif-containing 51G) | -0.45
TRIM51G (tripartite motif-containing 51G) | -1.8 (active)
TRIM51G (tripartite motif-containing 51G) | -1.28
TRIM51G (tripartite motif-containing 51G) | 0.38
TRIM51G (tripartite motif-containing 51G) | -2.23 (active)
TRIM51G (tripartite motif-containing 51G) | -0.38
TRIM51G (tripartite motif-containing 51G) | 3.59 (active)
LGMN (legumain) | -1.33
LGMN (legumain) | 0.42
LGMN (legumain) | -0.31
LGMN (legumain) | -0.14
CABCOCO1 (ciliary associated calcium binding coiled-coil 1) | 0.9
CABCOCO1 (ciliary associated calcium binding coiled-coil 1) | 0.72
CABCOCO1 (ciliary associated calcium binding coiled-coil 1) | 0.58
ZNF148 (zinc finger protein 148) | -0.47
ZNF148 (zinc finger protein 148) | -0.18
ZNF148 (zinc finger protein 148) | -0.67
ZNF148 (zinc finger protein 148) | 0.29
EPC1 (enhancer of polycomb 1) | -1.13
EPC1 (enhancer of polycomb 1) | -0.29
EPC1 (enhancer of polycomb 1) | -0.17
EPC1 (enhancer of polycomb 1) | -0.06
SMAD7 (SMAD family member 7) | 0.68
SMAD7 (SMAD family member 7) | 0.77
SMAD7 (SMAD family member 7) | 0.2
SMAD7 (SMAD family member 7) | 1.03
OSBPL3 (oxysterol binding protein like 3) | -0.63
OSBPL3 (oxysterol binding protein like 3) | -0.4
OSBPL3 (oxysterol binding protein like 3) | -0.48
AMDHD1 (amidohydrolase domain containing 1) | 1.39
AMDHD1 (amidohydrolase domain containing 1) | 1.76
AMDHD1 (amidohydrolase domain containing 1) | 2.16
AMDHD1 (amidohydrolase domain containing 1) | 2.01
MTSS2 (MTSS I-BAR domain containing 2) | 0.38
MTSS2 (MTSS I-BAR domain containing 2) | 1.87
MTSS2 (MTSS I-BAR domain containing 2) | 1.67
MTSS2 (MTSS I-BAR domain containing 2) | 2.1
CLDN11 (claudin 11) | -1.02
CLDN11 (claudin 11) | -2.08 (active)
CLDN11 (claudin 11) | -0.95
CLDN11 (claudin 11) | -0.8
MRPS5 (mitochondrial ribosomal protein S5) | -0.65
MRPS5 (mitochondrial ribosomal protein S5) | 0.04
MRPS5 (mitochondrial ribosomal protein S5) | -0.27
MRPS5 (mitochondrial ribosomal protein S5) | 0.12
CRYBB2 (crystallin beta B2) | -0.26
CRYBB2 (crystallin beta B2) | 0.72
CRYBB2 (crystallin beta B2) | 0.43
CRYBB2 (crystallin beta B2) | 0.15
COL6A3 (collagen type VI alpha 3 chain) | 1.1
COL6A3 (collagen type VI alpha 3 chain) | -0.17
COL6A3 (collagen type VI alpha 3 chain) | -0.36
COL6A3 (collagen type VI alpha 3 chain) | 0.1
RAB2B (RAB2B, member RAS oncogene family) | -0.04
RAB2B (RAB2B, member RAS oncogene family) | 1.99
RAB2B (RAB2B, member RAS oncogene family) | 1.06
RAB2B (RAB2B, member RAS oncogene family) | 2.93 (active)
PRAMEF8 (PRAME family member 8) | 0.14
PRAMEF8 (PRAME family member 8) | 0.44
PRAMEF8 (PRAME family member 8) | 1.29
PRAMEF8 (PRAME family member 8) | -0.38
POLR3B (RNA polymerase III subunit B) | 3.32 (active)
POLR3B (RNA polymerase III subunit B) | 0.39
POLR3B (RNA polymerase III subunit B) | -0.95
POLR3B (RNA polymerase III subunit B) | 2.81 (active)
FSTL3 (follistatin like 3) | 1.3
FSTL3 (follistatin like 3) | -0.6
FSTL3 (follistatin like 3) | -0.41
FSTL3 (follistatin like 3) | 0.36
PLXNB1 (plexin B1) | -0.72
PLXNB1 (plexin B1) | -0.48
PLXNB1 (plexin B1) | -0.94
PLXNB1 (plexin B1) | 0.15
